Screen size: about 340,000 compounds; about 170 (0.05%) were called active. The inconclusive results got no clear call from the source; some entries with a clear call stand among them for comparison. Calls come from the whole dose curve; as a rule, active = well fitted inhibition curve with a large enough effect in the signal ratio, with a control signal flat (not every such curve was filed as active); inconclusive = small, poorly fitted or top-dose-only effect, or effect the other way, or a change in a side signal; inactive = flat fitted curve, though single readings scatter; the % refers to the signal ratio. A potency beside an inconclusive call is a rough fit, not a confirmed value.
assay: qHTS Assay to Find Inhibitors of Chronic Active B-Cell Receptor Signaling; settings: ABC-DLBCL IkBa-CBG/CBR reporter, luminescence ratio (green luciferase fused to IkBa over red control in TMD8 lymphoma cells), 4 h; activity change, negative = inhibition: at 46.1 µM (top of the series) unless noted;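 for activity change, negative = inhibition: plate controls were basal doxycycline-induced cells for no effect and cells given 10 µM MG132 for full effect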
Method in brief: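 Doxycycline induced both beetle luciferases in TMD8 lymphoma cells; IKK-driven degradation limits the IkappaBalpha-fused green signal, while red luminescence normalises for cell number and nonspecific effects. Compounds tested up to 46 uM, 4 hrs.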
Potency is the fitted concentration of half-maximal effect.

SMILES | activity change, negative = inhibition | Potency
O=C(O)c1cc(S(=O)(=O)NC(CO)C(O)c2ccc([N+](=O)[O-])cc2)ccc1Br (stereo not drawn) | inactive: 1.85% | –
COc1ccc(-c2nc(N)ncc2-c2ccc(OC)c(OC)c2)c(O)c1 | – | inconclusive: 25.1 µM [falling, single point]
COc1ccccc1CCC(=O)OCC(=O)Nc1ccc2[nH]c(=O)[nH]c2c1 | inactive: -7.63% | –
COc1ccc(/C=C/C(=O)Nc2cccc(S(=O)(=O)NC3=NCCCCC3)c2)c(OC)c1 | – | inconclusive: 25.9 µM [falling, single point]
c1ccc(Cn2cc(CNc3ccccc3)nn2)cc1 | inconclusive: 7.68% | –
O=C(c1nc2ccc(Cl)cn2c1CN1CCC[C@H]1CO)N1CCCCCCC1 | inconclusive: 4.71% | –
CCOc1ccccc1C(=O)Nc1ccc(-n2nncc2-c2ccccc2)cc1 | inactive: -5.13% | –
CCC1C(O)=C(c2ccccn2)C(=N)N1c1ccccc1 (stereo not drawn) | inconclusive: -9.52% | –
COc1cc(SC)ccc1C(=O)OC(C)C(=O)NC1CCCC1 (stereo not drawn) | inconclusive: -9.59% | –
Cc1cc(=O)oc2cc(NC(=S)NCc3cccnc3)ccc12 | inconclusive: -10.5% | –
CC(=O)N[C@@H](Cc1c[nH]c2ccccc12)C(=O)OCC(=O)NCc1ccc2c(c1)OCO2 | inconclusive: 2% | –
CS(=O)(=O)Cc1cccc(C(=O)NC2CCSc3ccccc32)c1 (stereo not drawn) | inconclusive: -6.62% | –
N#C/C(=C\c1c(N2CCOCC2)nc2ccccn2c1=O)S(=O)(=O)c1ccccc1 | inconclusive: 9.67% | –
CSc1ccccc1OCc1cc(C(=O)N2CCN3CCCC3C2)no1 (stereo not drawn) | inactive: -3.8% | –
COc1cccc2[nH]c3c(Cl)ncnc3c12 | inconclusive: 17.7% | –
CCOC(=O)c1c(NC(=O)c2ccccc2C)sc2c1CC(C)(C)OC2 | inconclusive: 4.16% | –
O=C(COC(=O)C1CC1)Nc1nc(-c2ccc(F)c(F)c2)cs1 | inconclusive: 14.7% | –
CCCCN(C(=O)c1cc(-c2ccc(F)cc2)nc2ccccc12)c1c(N)n(CCCC)c(=O)[nH]c1=O | inactive: 4.12% | –
CCOC(=O)c1c(C)[nH]c(C)c1C(=O)CSc1nc2ccccc2c(=O)n1-c1ccc(Cl)cc1 | inconclusive: -11% | –
O=C(N/N=C/c1ccc[nH]1)c1ccccc1[N+](=O)[O-] | – | inconclusive: 18.4 µM [falling, partial curve]
Cc1ccc(N2CCN(S(=O)(=O)N3CCCCC3)CC2)c(C)c1 | inactive: 7.34% | –

An excerpt of these results, as comma-separated lines.
SMILES,"activity change, negative = inhibition",Potency
c1ccc(Cn2cc(CNc3ccccc3)nn2)cc1,inconclusive: 7.68%,–
CCC1C(O)=C(c2ccccn2)C(=N)N1c1ccccc1 (stereo not drawn),inconclusive: -9.52%,–
Cc1cc(=O)oc2cc(NC(=S)NCc3cccnc3)ccc12,inconclusive: -10.5%,–
Cc1ccc(N2CCN(S(=O)(=O)N3CCCCC3)CC2)c(C)c1,inactive: 7.34%,–

Remaining list, next part:

SMILES | activity change, negative = inhibition | Potency
COc1ccccc1NC(=O)NCCc1ccccc1 | – | inconclusive: 22.4 µM [falling, single point]
CCc1n[nH]c(=S)n1/N=C/c1cccc2ccccc12 | inconclusive: -8.35% | –
CCCCN(CC(=O)NC(C)(C)C)C(=O)C(=O)Nc1ccc2c(c1)OCCO2 | inconclusive: -0.123% | –
C=CCn1c(-c2csc(-c3ccc(OC)c(OC)c3)n2)n[nH]c1=S | inconclusive: -21.5% | –
COc1ccc(CC(=O)Nc2cc(Cl)ccc2N2CCCC2)cc1 | – | inconclusive: 7.94 µM [rising, partial curve]
CC(=O)Nc1cc(-c2ccc(Cl)cc2)[nH]n1 | inactive: -1.21% | –
O=C(Nc1ccc(-c2nc3ccccc3o2)cc1)c1cc(-n2cnnc2)ccc1Cl | inconclusive: 0.513% | –
COc1cc(/C=N/Nc2nc3ccccc3[nH]2)cc(OC)c1O | – | inconclusive: 18.4 µM [falling, single point]
O=C(NC(=S)NCCc1ccccc1)C1CCCCC1 | inconclusive: 3.47% | –
CN1CCSc2ccc(C(=O)Nc3cc(F)ccc3F)cc21 | – | inconclusive: 31.6 µM [rising, single point]
O=C(CNC(=O)c1ccc(Br)o1)NCc1ccc(Cl)cc1 | inactive: 3.35% | –
CCOC(=O)N1CCN(S(=O)(=O)c2ccc(OC)c(Cl)c2)CC1 | inconclusive: 0.0502% | –
CC(=O)N(Cc1ccccn1)Cc1ccco1 | – | inconclusive: 0.562 µM [falling, partial curve, poor fit]
CCOC(=O)C1=C(CCl)NC(=O)NC1c1ccc2c(c1)OCO2 (stereo not drawn) | inactive: -1.27% | –
COc1ccc2[nH]c(=O)c(CN(C(=O)NC3CCCCC3)C3CCCCC3)cc2c1 | inactive: -5.03% | –
COc1ccc(C(=O)Nc2ccccc2C(=O)NCC2CCCO2)cc1 (stereo not drawn) | inconclusive: 9.58% | –
COC(=O)c1ccc2[nH]c3c(c2c1)CC(C)CC3 (stereo not drawn) | inconclusive: 7.13% | –
COc1ccc(C(=O)CSc2nc3c(c(=O)n(C)c(=O)n3C)n2C)cc1 | inconclusive: 1.08% | –
Cc1ccc(Nc2nc(NCCO)nc3c2cnn3C)cc1Cl | inactive: -10.2% | –
CN(C)CCN1C(=O)c2ccccc2C1=O | inactive: -0.535% | –
O=C(C1CC(=O)N(c2ccc(F)cc2)C1)N1CCCCCC1 (stereo not drawn) | – | inconclusive: 11.2 µM [falling, single point]

SMILES | activity change, negative = inhibition | Potency
CCOC(=O)c1oc2ccccc2c1NC(=O)C1CCCCC1 | inconclusive: -0.84% | –
FC(F)(F)c1nnc2ccc(NCc3ccccc3)nn12 | inconclusive: -9.22% | –
CCOC(=O)CSc1nnc(CNC(=O)c2cccs2)n1-c1cc(OC)ccc1OC | inconclusive: 3.35% | –
Cc1ccc(NC2CC(=O)N(CCc3ccccc3)C2=O)cc1 (stereo not drawn) | inconclusive: 10.1% | –
CSc1ccc(CNC(=O)Cc2ccc(NC(=O)C3=C(C)OCCS3)cc2)cc1 | inconclusive: -10.4% | –
COc1ccc(-c2cc(C(=O)Nc3cnn(Cc4ccccc4C)c3)no2)cc1OC | – | inconclusive: 31.6 µM [falling, single point]
CC(=O)Nc1ccc(NC(=O)C2CC(=O)N(c3ccccc3Cl)C2)cc1 (stereo not drawn) | inactive: 14.9% | –
CN(CC(=O)Nc1ccc(F)c(F)c1F)C(=O)C1=NN(c2ccccc2)C(=O)CC1 | inconclusive: 5.87% | –
CCC1CCCCN1C(=O)CSc1nnc(-c2c[nH]c3ccccc23)o1 (stereo not drawn) | inconclusive: -24.4% | –
COc1ccccc1C1CC(=O)Nc2cc(C)c(C)cc21 (stereo not drawn) | – | inconclusive: 28.2 µM [falling, single point]
CCOC(=O)C1=NNC(C(=O)c2ccc(Cl)cc2)C1c1ccc(OC)cc1 (stereo not drawn) | inactive: -2.56% | –
N#Cc1c(-c2ccco2)cc(-c2ccc(F)cc2)nc1N | – | inconclusive: 1.64 µM [rising, full curve, poor fit]
CC12CC(NC(=O)N1c1cccc(C(=O)NCc3ccccn3)c1)c1ccccc1O2 (stereo not drawn) | – | inconclusive: 15.8 µM [rising, partial curve, poor fit]
CCc1cc(C(=O)N2CCCC(C(=O)c3cccc(OC(C)C)c3)C2)n(C)n1 (stereo not drawn) | inconclusive: -4.13% | –
CC(C)C[C@H](N)c1nnc(S(=O)(=O)Cc2ccc(F)cc2)o1 | inconclusive: 11.8% | –
CC1CCN(c2oc(Cc3cccc4ccccc34)nc2C#N)CC1 | – | inconclusive: 22.4 µM [falling, single point]
COc1cc(S(=O)(=O)N2CCN(C)CC2)c(OC)cc1Br | inconclusive: 16.6% | –
Cc1ccccc1-n1c(C)nnc1SCC(=O)NCC1CCCO1 (stereo not drawn) | inconclusive: 0.715% | –
O=C(c1ccc(Cl)cc1)N1C2C=CC(C2)C1(C(F)(F)F)C(F)(F)F (stereo not drawn) | inconclusive: 5.75% | –
Cc1cc[n+](-c2[nH]c(=O)sc2/C=N/N=C(\[O-])c2ccccc2)cc1 | – | inconclusive: 35.5 µM [falling, single point]
Cc1cc(Br)c(OCc2ccc(C(=O)N/N=C3\CC4CC=CC34)cc2)c(Br)c1 (stereo not drawn) | inactive: 2.08% | –

SMILES | activity change, negative = inhibition | Potency
O=C(COc1ccc(Cl)cc1)Nc1ccc2c(c1)OCO2 | – | inconclusive: 11.2 µM [falling, partial curve, poor fit]
CCN(Cc1ccccc1)C(=O)c1cccnc1 | inconclusive: -51.7% | –
Cc1cccc(CSCCNC(=O)COc2ccc(Cl)cc2)c1 | inconclusive: 1.76% | –
CCC(=O)N1CCC2(CC1)Oc1ccc(Cl)cc1C(=O)C21CC(c2ccccc2)=NO1 (stereo not drawn) | inconclusive: -9.79% | –
CCN(CC)CCNc1cc(C)nc2c1C(=O)C(=O)C=C2N1CCCCC1 | – | inconclusive: 11.2 µM [falling, partial curve]
O=C(N[C@@H](Cc1ccccc1)C(=O)N1CCN(S(=O)(=O)c2ccccc2F)CC1)c1ccco1 | inconclusive: 0.967% | –
CCOC(=O)c1[nH]c2ccc(OCC)cc2c1NC(=O)CN1CCC2(CC1)OCCO2 | inconclusive: 3.12% | –
CCCCOC(=O)c1cc(=O)[nH]c2ccc(C)cc12 | inconclusive: 5.43% | –
CCCCCCCCCCCC(=O)NC(C(=O)OCC)C(O)c1cccc([N+](=O)[O-])c1 (stereo not drawn) | inactive: 0.0424% | –
Cc1nc(N/N=C/c2ccccn2)sc1C | – | inconclusive: 20.6 µM [cytotoxic, partial curve]
COCCNC(=S)N/N=C(\C)c1ccc(Cl)s1 | – | inconclusive: 22.4 µM [cytotoxic, partial curve]
CCCCN1C(=O)C2C3C=CC(C2C1=O)C1C2C(=O)N(CCCC)C(=O)C2C31 (stereo not drawn) | inconclusive: 3.06% | –
O=C(COC(=O)c1nsc(Cl)c1Cl)NC1CCCCC1 | inconclusive: 10.4% | –
CCc1ccc(/C=C2/SC(N3CCOCC3)=NC2=O)cc1 | inactive: -10.8% | –
Nc1c(C(=O)NC23CC4CC(CC(C4)C2)C3)sc2nc3c(c(C(F)(F)F)c12)CCC3 | inconclusive: 5.56% | –
CS(=O)c1ccccc1COC(=O)Nc1ccc(Cl)cc1 (stereo not drawn) | inconclusive: 2.11% | –
O=C(Nc1nc2c(F)cc(F)cc2s1)C1COc2ccccc2O1 (stereo not drawn) | – | inconclusive: 15.8 µM [falling, single point]
CCOC(=O)N1CCC(N2Cc3cccc(C(=O)Nc4ccc(CC)cc4)c3C2=O)CC1 | inactive: 22.7% | –
FC(F)(F)c1cccc(NC(=S)Nc2cccc(Cl)c2)c1 | inconclusive: 19.4% | –
Cc1ccccc1C(=O)N1CCN(c2ncnc3c2cnn3-c2ccccc2)CC1 | inactive: 5.33% | –

Shown field by field: part of the list above.
COc1ccc(-c2nc(N)ncc2-c2ccc(OC)c(OC)c2)c(O)c1
  Potency: inconclusive: 25.1 µM [falling, single point]
N#C/C(=C\c1c(N2CCOCC2)nc2ccccn2c1=O)S(=O)(=O)c1ccccc1
  activity change, negative = inhibition: inconclusive: 9.67%

— PubChem BioAssay AID493014 (National Center for Advancing Translational Sciences (NCATS), 2011)
